Data as given in article PMC5452015, “Sen1 has unique structural features grafted on the architecture of the Upf1‐like helicase family” (The EMBO Journal, 2017).

Experiments:
[1] = biological target: T1, Sen1Hel L1549D (Saccharomyces cerevisiae) (UniProt Q00416); test: EMSA; settings: EMSA: 2 nM RNA; recombinant protein; residues 1095-1904; protein details: C-terminal CPD-His8 removed by 3C; label: 5' fluorescent label
T1 sequence (looked up): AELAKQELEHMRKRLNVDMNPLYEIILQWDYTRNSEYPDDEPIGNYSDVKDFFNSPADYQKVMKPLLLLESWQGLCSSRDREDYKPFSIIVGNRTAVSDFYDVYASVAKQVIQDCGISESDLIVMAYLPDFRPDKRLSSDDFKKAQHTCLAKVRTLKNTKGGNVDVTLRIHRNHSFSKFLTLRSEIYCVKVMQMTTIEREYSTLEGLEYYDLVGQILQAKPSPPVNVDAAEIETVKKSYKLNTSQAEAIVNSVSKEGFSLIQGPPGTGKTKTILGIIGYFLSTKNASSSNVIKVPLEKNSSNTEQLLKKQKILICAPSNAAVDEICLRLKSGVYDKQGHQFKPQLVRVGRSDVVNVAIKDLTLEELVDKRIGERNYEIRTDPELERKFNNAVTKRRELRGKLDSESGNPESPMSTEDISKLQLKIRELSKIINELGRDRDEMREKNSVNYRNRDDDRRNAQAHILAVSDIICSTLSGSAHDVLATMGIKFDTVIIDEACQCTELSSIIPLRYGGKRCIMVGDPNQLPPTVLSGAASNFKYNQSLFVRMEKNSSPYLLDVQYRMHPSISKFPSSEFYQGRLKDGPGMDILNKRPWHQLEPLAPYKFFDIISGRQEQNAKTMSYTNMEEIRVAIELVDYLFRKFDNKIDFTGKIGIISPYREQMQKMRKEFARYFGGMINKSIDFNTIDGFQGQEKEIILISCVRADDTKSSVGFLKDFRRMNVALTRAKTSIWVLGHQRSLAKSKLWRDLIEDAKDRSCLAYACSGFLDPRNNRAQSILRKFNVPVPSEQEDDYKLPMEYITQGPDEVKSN

[2] = biological target: T2, Sen1Hel T1289A, R1293A (Saccharomyces cerevisiae) (UniProt Q00416); test: fluorescence anisotropy; settings: 2 mM Mg2+; FA: 20 mM Hepes pH 7.5, 300 mM NaCl, 2 mM MgCl2, 1 mM DTT, 20 C, 10 nM RNA; recombinant protein; residues 1095-1904; protein details: C-terminal CPD-His8 removed by 3C; label: 5' fluorescein
T2 sequence (looked up): T1 sequence (looked up) with T195A, R199A, D455L

[3] = biological target: T3, Sen1Hel R1820Q (Saccharomyces cerevisiae) (UniProt Q00416); test: fluorescence anisotropy; settings: 2 mM Mg2+; FA: 20 mM Hepes pH 7.5, 300 mM NaCl, 2 mM MgCl2, 1 mM DTT, 20 C, 10 nM RNA; recombinant protein; residues 1095-1904; protein details: C-terminal CPD-His8 removed by 3C; label: 5' fluorescein
T3 sequence (looked up): T1 sequence (looked up) with D455L, R726Q

[4] = biological target: T4, Sen1Hel T1779P (Saccharomyces cerevisiae) (UniProt Q00416); test: fluorescence anisotropy; settings: 2 mM Mg2+; FA: 20 mM Hepes pH 7.5, 300 mM NaCl, 2 mM MgCl2, 1 mM DTT, 20 C, 10 nM RNA; recombinant protein; residues 1095-1904; protein details: C-terminal CPD-His8 removed by 3C; label: 5' fluorescein
T4 sequence (looked up): T1 sequence (looked up) with D455L, T685P

Sequence	binding result [1]	binding result [2]	binding result [3]	binding result [4]
UUCAUUUCAGACCAGCACCCACUCACUACAACUCACGACCAGGC [DL3316 44-mer RNA]	binds more weakly	–	–	–
UUUCUAUUUAUUUUG [ARE 15-mer AU-rich RNA]	–	binds more weakly	binds	binds more weakly

Residue numbers refer to the chain shown, from its start. For some of these results: The comparison behind a weaker result is the experiment's own reference, which may not be listed here. Tags and fusion partners may be left off the protein sequences shown. For some of these results: Construct, isoform or probe ends are uncertain for at least one entry. For some of these results: At least one verdict was read from the data and is not stated in words by the source.
